For four molecules, binding results are on record in patent publication US20220002427A1, “BISPECIFIC ANTIBODY AGAINST BCMA AND CD3 AND AN IMMUNOLOGICAL DRUG FOR COMBINED USE IN TREATING MULTIPLE MYELOMA” (ENGMAB SARL, priority 2016, published 2022).

Chains of the proteins cited; added tags and fusions are not shown.
UniProt Q02223: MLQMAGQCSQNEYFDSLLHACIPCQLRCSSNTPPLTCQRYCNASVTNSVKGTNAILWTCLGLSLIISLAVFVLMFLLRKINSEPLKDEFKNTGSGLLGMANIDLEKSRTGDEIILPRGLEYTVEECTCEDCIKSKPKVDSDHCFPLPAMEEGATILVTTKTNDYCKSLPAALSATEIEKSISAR

Changes are numbered by the printed parent chain. These are yes or no findings as the source states them, for the method shown. Some binding calls cover weakened binding; strength is not graded here.

B1: Mab 34 (antibody, V domains shown)
VH: EVQLLESGGGLVQPGGSLRLSCAASGFTFYTNAMGWVRQAPGKGLEWVSAINRFGGSTYYADSVKGRFTISRDNSKNTLYLQMNSLRAEDTAVYYCAKVLGWFDYWGQGTLVTVSS
VL: EIVLTQSPGTLSLSPGERATLSCRASQSVSSYYLAWYQQKPGQAPRLLISGAGSRATGIPDRFSGSGSGTDFTLTISRLEPEDFAVYYCQQYGYPPDFTFGQGTKVEIK
B2: Mab 28 (antibody, V domains shown)
VH: EVQLLESGGGLVQPGGSLRLSCAASGFTFSSAPMGWVRQAPGKGLEWVSAISYIGHTYYADSVKGRFTISRDNSKNTLYLQMNSLRAEDTAVYYCAKVLGWFDYWGQGTLVTVSS
VL: B1 VL
B3: Mab 14 (antibody, V domains shown)
VH: B1 VH
VL: B1 VL with S31D, Y32E, A35S, S50H, G51S, G53S, S54T, T75A
B4: Mab 44 (antibody, V domains shown)
VH: B2 VH
VL: B1 VL with S31D, Y32E, A35S, S50H, G51S, G53S, S54T, T75A

This assay has as its target human BCMA on cells (human) (UniProt Q02223). The assay can be described thus: flow cytometry on HEK-huBCMA cells, detection with PE-labelled anti-human Fc. Background: In flow cytometry, cells or beads pass a laser one at a time.
For B1, the binding result is “binds”.
The same measure for B2: “binds”.
As for B3, the binding result is reported as “binds”.
Regarding B4, the binding result was “binds”.
